In article PMC7819943, “Rice protein-binding microarrays: a tool to detect cis-acting elements near promoter regions in rice” one finds binding signal data, which are given here for 42 sequences.

Sequences of proteins named here, by UniProt entry; tags and fusion partners are left off.
UniProt Q0JBA9, entry or part of it: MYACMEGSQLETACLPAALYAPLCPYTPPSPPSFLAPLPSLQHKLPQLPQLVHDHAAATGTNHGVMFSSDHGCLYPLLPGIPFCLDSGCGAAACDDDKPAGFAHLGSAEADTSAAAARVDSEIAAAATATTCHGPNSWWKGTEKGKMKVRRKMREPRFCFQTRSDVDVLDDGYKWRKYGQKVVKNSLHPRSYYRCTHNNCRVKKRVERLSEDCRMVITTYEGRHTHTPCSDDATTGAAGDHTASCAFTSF

The other results are listed elsewhere or left out.

For this assay, the target named is OsWRKY34 (Oryza sativa, UniProt Q0JBA9 1-250). Description: protein-binding microarray (RPBM); PBS, 2% BSA, 51.3 ng/ul salmon testes DNA, 50 uM zinc acetate, 200 nM TF, 25 C, 1 h; high values mean tight binding. As to conditions: protein: recombinant; tags: N-terminal polyhistidine and DsRed monomer fusion (pET32a); label: CyDye5-dUTP incorporated in the synthesized complementary strand; 3' TTTTT single-stranded linker to array surface; dsDNA, one strand shown. In outline:
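Using Ni–NTA, transcription factors fused N-terminally to polyhistidine and DsRed were purified after expression in E. coli BL21-CodonPlus. These were incubated at 200 nM with a blocked, double-stranded custom Agilent array for 1 h at 25 °C in a buffer containing 50 µM zinc acetate, and the array was washed. The binding signal is per-feature fluorescence intensity (arbitrary units) on an Axon 4000B scanner.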
On to “TGCACACCCTATCCCGAAATACACATCACGCTCACGGGGCCGGAGTCACCTAGTGCAG”, for which the binding signal was 8090 fluorescence intensity (a.u.).

As to “GTCAATTTGGTACCTTGTTCTGCTTTAAACTCCATCACTACGGAGTCACCTAGTGCAG”, the binding signal was 11700 fluorescence intensity (a.u.).

With “GTGGCTGGGAGGATATTTTGGGCTGGTGGTTTGTTGATGTCGGAGTCACCTAGTGCAG”, the binding signal was 13000 fluorescence intensity (a.u.).

Take “CTCGTCTGTTTTGTTTTCCCCTCCGACTCCGACTCCGATCCGGAGTCACCTAGTGCAG”: the binding signal is 8180 fluorescence intensity (a.u.).

Turning to “AGACACTCTGGTGCTTTGTTTCTATTTTATTTGGGTGGGGCGGAGTCACCTAGTGCAG”, the binding signal is 13000 fluorescence intensity (a.u.).

For the sequence “CCCACCCCACCACCCACCGGCCCCACACGTCAGCTATACACGGAGTCACCTAGTGCAG”, the binding signal was 9860 fluorescence intensity (a.u.).

Turning to “TCTTCTAATATATTGACGTGCAATCCTTTTACGCGTTCGCCGGAGTCACCTAGTGCAG”, the binding signal was 8070 fluorescence intensity (a.u.).

For the sequence “CGACCACCTTTTCACCTCCGGATCACCACCGCAATGGCTCCGGAGTCACCTAGTGCAG”, the binding signal was 9340 fluorescence intensity (a.u.).

As for “GTGAGCTTTATTTATCTTTTGTCAATAATCATTTTCTCCACGGAGTCACCTAGTGCAG”, the binding signal is 8880 fluorescence intensity (a.u.).

Take “GATCGGTTCTTGCCTTCTTGGGCTGCTTCAGGGGCGTGGGCGGAGTCACCTAGTGCAG”: the binding signal is 10900 fluorescence intensity (a.u.).

“CAAATCGAATCGACCGCGAACACCCTCGTTTCCACCCGCGCGGAGTCACCTAGTGCAG”: the binding signal was 9080 fluorescence intensity (a.u.).

“AGTTTAATTTTTCTATGGTTGGTTCTTGTGTGCTCCTAAGCGGAGTCACCTAGTGCAG”: the binding signal is 10500 fluorescence intensity (a.u.).

Take “ACACTAACTCCGTGTCTCCGCACATCCTTCATTCGCCCACCGGAGTCACCTAGTGCAG”: the binding signal was 11200 fluorescence intensity (a.u.).

“TTGTTTTTTTCTTTTTTTCGCCCGGATTTTTTTTGGATCGCGGAGTCACCTAGTGCAG”: the binding signal was 9400 fluorescence intensity (a.u.).

For the sequence “GCATATTTATTCTTTTTCTTAACTTGAATACGTTGAATTTCGGAGTCACCTAGTGCAG”, the binding signal was 9410 fluorescence intensity (a.u.).

Regarding “TCGTCACCGGCCGTCCCTCTCCGTCTGCTACGTTAGCTTGCGGAGTCACCTAGTGCAG”, the binding signal is 8140 fluorescence intensity (a.u.).

For “GGGTTAGATGCTTATCGCGCCATAAGGCGCGTCAATTTTCCGGAGTCACCTAGTGCAG”, the binding signal was 9510 fluorescence intensity (a.u.).

As for “TCTGCTCGATCCCGCCTTTGCCTGCGGATTCCCACCCTGACGGAGTCACCTAGTGCAG”, the binding signal is 10600 fluorescence intensity (a.u.).

With “CAAAACAGTCACTACTCGTAACATGGTATAGGTGGTTGACCGGAGTCACCTAGTGCAG”, the binding signal is 8760 fluorescence intensity (a.u.).

As to “CTCTTTCTCTTTCTCTTCTTCCCTTTCGTCTTCGTCTTCGCGGAGTCACCTAGTGCAG”, the binding signal was 8180 fluorescence intensity (a.u.).

As to “ACACTAGGCCCAAGGCAAGCCCACCACTCGTGCTCGTAACCGGAGTCACCTAGTGCAG”, the binding signal is 10700 fluorescence intensity (a.u.).

On to “CGTCGCCCGCCTCCACTCAGCTGCCGCCGCCTCCAAGACGCGGAGTCACCTAGTGCAG”, for which the binding signal is 8780 fluorescence intensity (a.u.).

With “GATCGCGGCCATCGTTAGACTCATCCCAGCCGTCCACCTACGGAGTCACCTAGTGCAG”, the binding signal was 9620 fluorescence intensity (a.u.).

As for “CATTATTGTTTTATTATCGTGACACATGTTGTTCTCATAACGGAGTCACCTAGTGCAG”, the binding signal was 9650 fluorescence intensity (a.u.).

On to “CCATATTTGCCAAGAAAGAAATGGGCCGGGGTTAATGTTTCGGAGTCACCTAGTGCAG”, for which the binding signal is 8680 fluorescence intensity (a.u.).

As to “AAATTAGGTGTAGTTTTGATTTTTTCTGGTAACGTTTGACCGGAGTCACCTAGTGCAG”, the binding signal was 9180 fluorescence intensity (a.u.).

For “ATCTCTCACTGACATGTGGGGCCCACGACCTGCCTTATCCCGGAGTCACCTAGTGCAG”, the binding signal is 9270 fluorescence intensity (a.u.).

For the sequence “CTCCCTTGTAATTCCTAAATCCGTCTCTTCTTCCGCCGGCCGGAGTCACCTAGTGCAG”, the binding signal is 8310 fluorescence intensity (a.u.).

Take “CCCATTGAACCCGTCTCTTCTACCCTTCGCCGACATCGCCCGGAGTCACCTAGTGCAG”: the binding signal was 8420 fluorescence intensity (a.u.).

For “TCCTTCTGTCAATCTGTCCACACTTTTTTCTCCCAGTGCACGGAGTCACCTAGTGCAG”, the binding signal was 12000 fluorescence intensity (a.u.).

Consider “GGTGTAGTGGTCGGTGCGGACGATGAGGTGGGAGAAATGGCGGAGTCACCTAGTGCAG”, for which the binding signal is 10100 fluorescence intensity (a.u.).

Regarding “GCTGATGACGTCCCTATCGGTTCTTATCTCAGTTCCTCCCCGGAGTCACCTAGTGCAG”, the binding signal was 8140 fluorescence intensity (a.u.).

For the sequence “ACTGTTTGAGTACCTAATTTAACCCGGTTTTATAAGTTAACGGAGTCACCTAGTGCAG”, the binding signal is 8700 fluorescence intensity (a.u.).

As for “GATCTTTCTACTACCTTATTCAACTGTTGGGTTGCCACTTCGGAGTCACCTAGTGCAG”, the binding signal is 10400 fluorescence intensity (a.u.).

“CGCTTTCACACTGCCTCTTTCGCGCAGATCCATACAAAACCGGAGTCACCTAGTGCAG”: the binding signal is 9960 fluorescence intensity (a.u.).

For “GTGCTCTTCCGCTACTTGTTCCGGATAATATCCCTCTCATCGGAGTCACCTAGTGCAG”, the binding signal was 9120 fluorescence intensity (a.u.).

Regarding “CCTTCATAGTACCACCACCACCACCACTCATCACATCTCACGGAGTCACCTAGTGCAG”, the binding signal is 8160 fluorescence intensity (a.u.).

Consider “TATCTTAGGTGTGCTACAATTTTATACATATGTGTTTATCCGGAGTCACCTAGTGCAG”, for which the binding signal was 8340 fluorescence intensity (a.u.).

As to “CTACCTCCTTTGCTTTTGGTGTCTTTGGAATCACCGACACCGGAGTCACCTAGTGCAG”, the binding signal was 8190 fluorescence intensity (a.u.).

As for “AATAATGGTTTGCTTTCGTTGAACGTCTGGACGTTGGAACCGGAGTCACCTAGTGCAG”, the binding signal was 8210 fluorescence intensity (a.u.).

“GATGTTTGTAAATGTTTCAATTCATATTGATCTATGGCAACGGAGTCACCTAGTGCAG”: the binding signal is 8800 fluorescence intensity (a.u.).

For the sequence “GATTGGCAGGAGCCATGTTACGTCGGTCCATCCCGTCCCGCGGAGTCACCTAGTGCAG”, the binding signal was 9380 fluorescence intensity (a.u.).
